For at least one compound, name, drawing or mass did not settle the structure.
Assay: Drug release from PCMC composite coating with PLGA diffusion barrier
Type: physicochemical
Details: release from HAP/PLGA PCMC coating of Example 9 (paclitaxel in HAP phase, Rapamycin in polymer phase) covered with 2 μm thick PLGA (85:15) layer
Experimental: Porous HAP coating was deposited on stent as in the above Example 2. The HAP porous coating stents was impregnated into 2 wt % paclitaxel methanol solution for 20 min and then removed extra solution by high speed spinning, then dried in an oven for 2 hours. The paclitaxel was filled into mesopores and partial into large pore micropores. The paclitaxel loaded stents were subsequently impregnated with 10 wt % PLGA acetone solution containing 2 wt % Rapamycin and then the extra solution removed by spinning. The biopolymer PLGA filled inside pores provides extra flexibility for HAP coatings and diffusion barrier for controlling drug release profiles. Rapamycin in the polymer phase will release much faster than that of paclitaxel only in the HAP phase.
As illustrated in the above Example 9, different drugs were encapsulated into the polymer and HAP phases. In order to add further controls for drug release profile, e.g. to further slow down the drug release rate, a functional diffusion barrier was deposited on the surface of the composite PCMC coating. In this particular example, a 2 μm thick PLGA (85:15) layer was deposited on the PCMC surface by spin-coating. Rapamycin release from such modified PCMC coating was sustained for 3-5 months and paclitaxel for 6-12 months.

In the case of `CO[C@H]1C[C@@H]2CC[C@@H](C)[C@@](O)(O2)C(=O)C(=O)N2CCCC[C@H]2C(=O)O[C@H]([C@H](C)C[C@@H]2CC[C@@H](O)[C@H](OC)C2)CC(=O)[C@H](C)/C=C(\C)[C@@H](O)[C@@H](OC)C(=O)[C@H](C)C[C@H](C)/C=C/C=C/C=C/1C` [Rapamycin], the “drug release sustained for” value is reported as 3-5 months.
